Values from PubChem BioAssay AID1259308 (NCATS, 2017).
In all, the deposit lists about 59,000 reagents; this is an unselected part. About 1,510 of them (2.6%) count as active. 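Calls use total luciferase alone and ignore viability, so some active siRNAs may act by altering cell number.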 The numbers tell different reagents against one gene apart. No sequences are given here.

Aim: 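Genes whose loss raises luciferase production in HEK293 cells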 (primary screen)
System: human HEK293 embryonic kidney cells stably expressing firefly luciferase (HEK-CMV-Luc2-Hygro)
Knock-down reagent: single siRNA against human genes, 0.8 pmol siRNA per well
Duration: 72 h
Measurement: 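Reporter luminescence and viable-cell signal on separate replicate plates, given as percent of non-targeting control and median/MAD z-scores, plus per-cell luciferase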
Reading the numbers: total luciferase, z-score and total luciferase, % of control: higher = more reporter protein produced; luciferase per cell, z-score: higher = more reporter output per viable cell; viable cells, % of control: higher = more viable cells
Active means: 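Active when the median/MAD z-score for overall luciferase is greater than 3; a gene was taken forward for validation with new siRNAs if at least two of its three siRNAs passed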
Calls: active = raised luciferase; inactive = no rise

gene knocked down	reagent no.	total luciferase, z-score	total luciferase, % of control	luciferase per cell, z-score	viable cells, % of control	Call
SLC30A2	1	0.441	90.7	0.478	89.3	inactive
SLC30A2	2	-0.756	66.8	-0.295	80.7	inactive
SLC30A2	3	0.28	87.5	0.288	90.6	inactive
NID1 (nidogen 1)	1	0.31	88.1	0.868	78.3	inactive
NID1 (nidogen 1)	2	-0.244	77	-0.225	91.3	inactive
NID1 (nidogen 1)	3	-0.443	73.1	0.0908	79.7	inactive
C8A (complement C8 alpha chain)	1	-0.161	78.7	-0.567	102	inactive
C8A (complement C8 alpha chain)	2	-1.39	54.2	-1.77	96.6	inactive
C8A (complement C8 alpha chain)	3	-0.765	66.7	-0.81	92.2	inactive
DUS2 (dihydrouridine synthase 2)	1	1.17	105	0.374	107	inactive
DUS2 (dihydrouridine synthase 2)	2	3.7	155	2.1	100	active
DUS2 (dihydrouridine synthase 2)	3	0.0659	83.2	-0.609	109	inactive
CISH (cytokine inducible SH2 containing protein)	1	-0.486	72.2	-0.269	86.6	inactive
CISH (cytokine inducible SH2 containing protein)	2	0.426	90.4	0.172	96.5	inactive
CISH (cytokine inducible SH2 containing protein)	3	0.156	85	0.135	91.7	inactive
LRIT1 (leucine rich repeat, Ig-like and transmembrane domains 1)	1	-2.33	35.6	-2.56	78.1	inactive
LRIT1 (leucine rich repeat, Ig-like and transmembrane domains 1)	2	0.694	95.7	-0.0548	108	inactive
LRIT1 (leucine rich repeat, Ig-like and transmembrane domains 1)	3	-0.229	77.3	0.0516	85.2	inactive
MCRS1 (microspherule protein 1)	1	-0.338	75.2	-0.842	105	inactive
MCRS1 (microspherule protein 1)	2	-0.487	72.2	-0.763	98.6	inactive
MCRS1 (microspherule protein 1)	3	1.11	104	1.71	74.1	inactive
MAT2B (methionine adenosyltransferase 2 non-catalytic beta subunit)	1	-0.546	71	-0.869	99.8	inactive
MAT2B (methionine adenosyltransferase 2 non-catalytic beta subunit)	2	1.08	103	0.835	92.6	inactive
MAT2B (methionine adenosyltransferase 2 non-catalytic beta subunit)	3	1.48	111	1.01	95.2	inactive
RYBP (RING1 and YY1 binding protein)	1	0.72	96.2	0.218	101	inactive
RYBP (RING1 and YY1 binding protein)	2	-2.81	26.1	-3.5	73.1	inactive
RYBP (RING1 and YY1 binding protein)	3	1.92	120	2.87	63.1	inactive
MYO1E (myosin IE)	1	1.35	109	2.05	70.8	inactive
MYO1E (myosin IE)	2	0.299	87.8	0.0971	95.7	inactive
MYO1E (myosin IE)	3	0.227	86.4	0.255	90.3	inactive
TTC31 (tetratricopeptide repeat domain 31)	1	-0.465	72.6	-1.37	117	inactive
TTC31 (tetratricopeptide repeat domain 31)	2	-0.715	67.7	-0.643	89.5	inactive
TTC31 (tetratricopeptide repeat domain 31)	3	0.577	93.4	-0.513	119	inactive
EDEM2 (ER degradation enhancing alpha-mannosidase like protein 2)	1	0.781	97.4	1.53	72.8	inactive
EDEM2 (ER degradation enhancing alpha-mannosidase like protein 2)	2	-0.513	71.7	-1.11	107	inactive
EDEM2 (ER degradation enhancing alpha-mannosidase like protein 2)	3	2.35	129	1.19	105	inactive
SDAD1 (SDA1 domain containing 1)	1	-1.73	47.5	-0.668	63.3	inactive
SDAD1 (SDA1 domain containing 1)	2	-0.903	63.9	-0.661	85	inactive
SDAD1 (SDA1 domain containing 1)	3	-0.86	64.8	-0.932	92.5	inactive
CHRNA1 (cholinergic receptor nicotinic alpha 1 subunit)	1	1.7	116	2.32	70.1	inactive
CHRNA1 (cholinergic receptor nicotinic alpha 1 subunit)	2	2.57	133	2.13	84.8	inactive
CHRNA1 (cholinergic receptor nicotinic alpha 1 subunit)	3	-2.31	35.9	-2.17	71	inactive
DHDH (dihydrodiol dehydrogenase)	1	0.32	88.3	0.762	80.7	inactive
DHDH (dihydrodiol dehydrogenase)	2	-1.6	50.1	-2.06	96.3	inactive
DHDH (dihydrodiol dehydrogenase)	3	0.787	97.5	1.09	81.7	inactive
PPP1R2 (protein phosphatase 1 regulatory inhibitor subunit 2)	1	0.127	84.4	0.459	83.6	inactive
PPP1R2 (protein phosphatase 1 regulatory inhibitor subunit 2)	2	2.29	127	2.13	81.3	inactive
PPP1R2 (protein phosphatase 1 regulatory inhibitor subunit 2)	3	-1.03	61.4	-1.38	98.7	inactive
NLRC3 (NLR family CARD domain containing 3)	1	1.72	116	1.99	76.9	inactive
NLRC3 (NLR family CARD domain containing 3)	2	1.66	115	0.853	103	inactive
NLRC3 (NLR family CARD domain containing 3)	3	2.13	124	1.69	88.9	inactive
TCAF2 (TRPM8 channel associated factor 2)	1	0.249	86.8	1.46	66	inactive
TCAF2 (TRPM8 channel associated factor 2)	2	-1.98	42.5	-1.73	74.9	inactive
TCAF2 (TRPM8 channel associated factor 2)	3	0.468	91.2	1.12	75.9	inactive
NYX (nyctalopin)	1	0.527	92.4	0.511	90.2	inactive
NYX (nyctalopin)	2	-0.000308	81.9	-0.84	114	inactive
NYX (nyctalopin)	3	0.16	85.1	-0.308	103	inactive
ZNF254 (zinc finger protein 254)	1	-1.44	53.2	-0.295	64.2	inactive
ZNF254 (zinc finger protein 254)	2	0.203	85.9	-0.169	100	inactive
ZNF254 (zinc finger protein 254)	3	-0.48	72.3	-0.138	83.8	inactive
LURAP1L (leucine rich adaptor protein 1 like)	1	-0.469	72.6	0.803	65.6	inactive
LURAP1L (leucine rich adaptor protein 1 like)	2	-0.843	65.1	-1.01	94.8	inactive
LURAP1L (leucine rich adaptor protein 1 like)	3	0.454	90.9	0.707	84.3	inactive
AMIGO2 (adhesion molecule with Ig like domain 2)	1	-1.48	52.5	0.134	56.6	inactive
AMIGO2 (adhesion molecule with Ig like domain 2)	2	-0.941	63.2	-1.27	98.6	inactive
AMIGO2 (adhesion molecule with Ig like domain 2)	3	-0.576	70.4	-0.464	88.9	inactive
ADAM30 (ADAM metallopeptidase domain 30)	1	-0.55	70.9	-0.69	95.1	inactive
ADAM30 (ADAM metallopeptidase domain 30)	2	-0.167	78.6	-0.537	101	inactive
ADAM30 (ADAM metallopeptidase domain 30)	3	3.04	142	1.43	109	active
CXCL2 (C-X-C motif chemokine ligand 2)	1	0.719	96.2	0.113	104	inactive
CXCL2 (C-X-C motif chemokine ligand 2)	2	0.0822	83.5	-0.0418	94.4	inactive
CXCL2 (C-X-C motif chemokine ligand 2)	3	1.54	112	1.72	79.9	inactive
NAA10 (N-alpha-acetyltransferase 10, NatA catalytic subunit)	1	-0.531	71.3	-0.577	92.8	inactive
NAA10 (N-alpha-acetyltransferase 10, NatA catalytic subunit)	2	-1.05	61	-0.647	80.8	inactive
NAA10 (N-alpha-acetyltransferase 10, NatA catalytic subunit)	3	-1.78	46.4	-2.54	101	inactive
